Measured data: PubChem BioAssay AID504786 (Drosophila RNAi Screening Center, 2011)
In all, the deposit lists about 21,000 reagents; below is an unselected part of those that have a named target and a result. 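Primary screen; positive scores mean lost reporter signal, so the sign may be inverted from the usual convention.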 Names joined by + are all predicted targets of the reagent.

Aim: 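Knock-downs reducing HIF reporter induction by the iron chelator DFO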 (primary screen)
System: Drosophila S2 cells with a stable HIF luciferase reporter
Knock-down reagent: long dsRNA against Drosophila genes, about 0.2 µg dsRNA per well of a 384-well plate
Time to read-out: three days of knock-down, then 20 h of DFO before reading
Challenge: desferrioxamine (DFO) at 100 µM, an iron chelator that mimics hypoxia, for 20 h
Measured: 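HIF reporter luminescence in cells given 100 µM DFO for 20 h, using the mouse ldh-a hypoxia-response element, scored as per-plate z-scores; higher means greater loss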
Direction: z-score: higher = stronger loss of HIF reporter signal

| target | dsRNA | z-score, replicate 1 | z-score, replicate 2 |
| --- | --- | --- | --- |
| Grx1t (GeneID 37483) | DRSC04530 | -0.4 | -0.5 |
| CG13659 (GeneID 43059) | DRSC14660 | -0.3 | -0.2 |
| CG3328 (GeneID 37871) | DRSC04357 | -0.2 | -0.5 |
| CG42749 (GeneID 31438) | DRSC18091 | -0.3 | -0.3 |
| CG42749 (GeneID 31438) | DRSC18092 | -0.3 | -0.5 |
| SNF4Agamma (GeneID 42515) | DRSC13461 | -0.6 | -0.6 |
| SNF4Agamma (GeneID 42515) | DRSC13463 | -0.2 | -0.5 |
| SNF4Agamma (GeneID 42515) | DRSC15879 | 0.7 | -0.3 |
| SNF4Agamma (GeneID 42515) | DRSC16847 | -0.5 | -1.3 |
| CG13014 (GeneID 32626) | DRSC19533 | -0.3 | -0.7 |
| Mtpalpha (GeneID 34276) | DRSC01994 | -0.1 | -0.3 |
| PHDP (GeneID 37788) | DRSC04635 | -0.4 | 0.2 |
| Ir25a (GeneID 33683) | DRSC00462 | 0 | -0.4 |
| CG8066 (GeneID 41766) | DRSC16374 | 0.2 | -0.3 |
| PolG1 (GeneID 34792) | DRSC03621 | -0.1 | -0.3 |
| Smn (GeneID 39844) | DRSC10223 | -0.1 | 0.1 |
| chp (GeneID 43690) | DRSC16925 | 0.5 | -0.5 |
| CG7255 (GeneID 39662) | DRSC10790 | -0.3 | -0.5 |
| CG7656 (GeneID 39691) | DRSC10900 | -0.3 | -0.4 |
| CG2889 (GeneID 31977) | DRSC18236 | -0.3 | -0.3 |
| CG4563 (GeneID 37901) | DRSC04474 | -0.3 | 0.5 |
| TfIIFbeta (GeneID 41290) | DRSC16884 | -0.3 | -0.5 |
| CanA1 (GeneID 43670) | DRSC16600 | -0.2 | -0.6 |
| CG32473 (GeneID 41636) | DRSC14352 | 0.1 | -0.3 |
| CG32473 (GeneID 41636) | DRSC16446 | -0.1 | 0.3 |
| CG9485 (GeneID 37435) | DRSC04557 | 0.2 | 0.1 |
| Eaf (GeneID 35660) | DRSC05050 | 0.9 | 1 |
| Eaf (GeneID 35660) | DRSC06052 | -0.1 | -0.4 |
| CG13051 (GeneID 5740583) | DRSC09932 | -0.4 | -0.3 |
| Rab4 (GeneID 36992) | DRSC07524 | -0.2 | 0 |
| CG7448 (retired record) (GeneID 40440) | DRSC11828 | -0.3 | -0.3 |
| AP-1-2beta (GeneID 32987) | DRSC19336 | -0.9 | -1.5 |
| CG2493 (GeneID 35316) | DRSC02707 | -0.1 | -0.2 |
| CG44422 (GeneID 32063) | DRSC18885 | 0.7 | 0.3 |
| CG44422 (GeneID 32063) | DRSC19380 | 0 | -0.3 |
| CG44422 (GeneID 32063) | DRSC19480 | -0.2 | 0.1 |
| CG13113 (GeneID 34271) | DRSC02211 | -0.3 | 0.9 |
| CG31075 (GeneID 43244) | DRSC16016 | -0.1 | -0.5 |
| Pdp1 (GeneID 45588) | DRSC08896 | 3.7 | -0.4 |
| Pdp1 (GeneID 45588) | DRSC08897 | 8.6 | -0.8 |
| Pdp1 (GeneID 45588) | DRSC11251 | -0.1 | -0.2 |
| jagn (GeneID 40714) | DRSC12152 | -0.4 | -0.7 |
| CG10996 (GeneID 32345) | DRSC19363 | -0.3 | 0.1 |
| CG2865 (GeneID 31217) | DRSC18527 | -0.3 | -0.1 |
| CG2865 (GeneID 31217) | DRSC18528 | 2.8 | 2.1 |
| CecA1 (GeneID 43596) | DRSC16603 | 0.7 | 1.2 |
| CG2574 (GeneID 32190) | DRSC19862 | -0.1 | 1.7 |
| sqz (GeneID 42300) | DRSC16980 | -0.8 | -0.4 |
| Rh3 (GeneID 42398) | DRSC16822 | -0.1 | -0.1 |
| Doc3 (GeneID 39036) | DRSC10480 | -0.4 | -0.1 |
| Sqor (GeneID 38514) | DRSC08453 | -0.3 | -0.5 |
| SWIP (GeneID 32594) | DRSC19540 | 0.2 | -0.1 |
| loqs (GeneID 34751) | DRSC02997 | -0.3 | -0.4 |
| CG11145 (GeneID 35663) | DRSC06049 | -0.2 | -0.6 |
| CG32718 (GeneID 318168) | DRSC17538 | -0.3 | -0.2 |
| primo-2 + primo-1 | DRSC16511 | -0.3 | -0.6 |

Part of the list above in another layout:
CG2865 (GeneID 31217) [DRSC18527]
- z-score, replicate 1: -0.3
- z-score, replicate 2: -0.1

CG2865 (GeneID 31217) [DRSC18528]
- z-score, replicate 1: 2.8
- z-score, replicate 2: 2.1

CecA1 (GeneID 43596) [DRSC16603]
- z-score, replicate 1: 0.7
- z-score, replicate 2: 1.2

CG2574 (GeneID 32190) [DRSC19862]
- z-score, replicate 1: -0.1
- z-score, replicate 2: 1.7

sqz (GeneID 42300) [DRSC16980]
- z-score, replicate 1: -0.8
- z-score, replicate 2: -0.4

Rh3 (GeneID 42398) [DRSC16822]
- z-score, replicate 1: -0.1
- z-score, replicate 2: -0.1
